The supplement of paper PMC6078165

Columns and labels:
Assay in all cases: relative JC-1 red fluorescence (viability) vs pre-drug, monoculture (fraction); higher = more viable cancer cells
Conditions in all cases: coculture fibroblast: none (monoculture)
MDAMB436 = test system: MDAMB436
Method: (§1)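 JC-1 labelled TNBC cells grown in monoculture (density kept equal with unlabelled cancer cells) in 384-well plates in FluoroBrite medium, treated with one of 42 anticancer drugs at 0.1, 1, 10 or 100 uM. JC-1 red fluorescence (mitochondrial integrity, surrogate of apoptotic death) was read by plate reader every 8 h for 72 h. Values are normalised to each well's pre-drug value, with background from alamethicin. The stock of one drug was tenfold lower, so its dose labels may be too high. Monoculture values are repeated alongside each fibroblast plate and are averaged here.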

MDAMB468 = test system: MDAMB468
Method: as §1

BT20 = test system: BT20
Method: as §1

MDAMB231 = test system: MDAMB231
Method: as §1

C=C1C[C@@H]2[C@H](CC[C@]3(C)C(=O)CC[C@@H]23)[C@@]2(C)C=CC(=O)C=C12 [Exemestane]
relative JC-1 red fluorescence
Conditions	8 h	16 h	24 h	32 h	40 h	48 h	56 h	64 h	72 h
BT20, 0.1 µM	0.9443	0.878	0.7965	0.725	0.68	0.644	0.622	0.597	0.593
BT20, 1 µM	0.901	0.841	0.772	0.722	0.672	0.648	0.618	0.6	0.583
BT20, 10 µM	0.9495	0.907	0.871	0.841	0.845	0.845	0.838	0.835	0.775
BT20, 100 µM	0.90912	0.8529	0.854	0.774	0.754	0.7362	0.704	0.6922	0.6832
MDAMB231, 0.1 µM	0.7412	0.675	0.672	0.624	0.59	0.597	0.568	0.594	0.594
MDAMB231, 1 µM	0.737	0.726	0.61	0.607	0.57	0.55	0.508	0.52	0.517
MDAMB231, 10 µM	0.7816	0.795	0.784	0.858	0.871	0.887	0.865	0.894	0.887
MDAMB231, 100 µM	0.801	0.819	0.763	0.768	0.757	0.764	0.734	0.745	0.752
MDAMB436, 0.1 µM	0.871	0.818	0.8025	0.7566	0.774	0.7849	0.8029	0.8085	0.8193
MDAMB436, 1 µM	0.8513	0.784	0.773	0.719	0.69	0.679	0.672	0.673	0.67
MDAMB436, 10 µM	0.871	0.817	0.8331	0.791	0.797	0.801	0.81	0.818	0.824
MDAMB436, 100 µM	0.8607	0.7877	0.825	0.779	0.777	0.77	0.753	0.732	0.719
MDAMB468, 0.1 µM	0.8955	0.825	0.742	0.673	0.6294	0.608	0.576	0.548	0.54
MDAMB468, 1 µM	0.911	0.856	0.825	0.75	0.721	0.702	0.671	0.64	0.625
MDAMB468, 10 µM	0.9096	0.85	0.8097	0.7589	0.7289	0.72412	0.6997	0.6867	0.6788
MDAMB468, 100 µM	0.94	0.926	0.875	0.796	0.723	0.683	0.62	0.5797	0.564

O=C(O)C(=O)O.[NH-][C@@H]1CCCC[C@H]1[NH-].[Pt+2] [Oxaliplatin]
relative JC-1 red fluorescence
Conditions	8 h	16 h	24 h	32 h	40 h	48 h	56 h	64 h	72 h
BT20, 0.1 µM	0.962	0.868	0.87	0.809	0.789	0.783	0.768	0.772	0.768
BT20, 1 µM	0.9352	0.877	0.778	0.725	0.684	0.654	0.635	0.612	0.6
BT20, 10 µM	0.915	0.793	0.719	0.651	0.617	0.584	0.556	0.534	0.519
BT20, 100 µM	0.962	0.883	0.906	0.891	0.845	0.833	0.815	0.821	0.805
MDAMB231, 0.1 µM	0.7317	0.676	0.841	0.703	0.683	0.711	0.7095	0.772	0.7821
MDAMB231, 1 µM	0.738	0.742	0.609	0.619	0.581	0.561	0.526	0.534	0.533
MDAMB231, 10 µM	0.8497	0.69791	0.87752	0.7403	0.72	0.74	0.738	0.803	0.815
MDAMB231, 100 µM	0.753	0.749	0.624	0.628	0.594	0.563	0.529	0.534	0.533
MDAMB436, 0.1 µM	0.8892	0.9284	0.9119	0.739	0.811	0.838	0.829	0.831	0.776
MDAMB436, 1 µM	0.843	0.7776	0.706	0.643	0.611	0.597	0.588	0.577	0.574
MDAMB436, 10 µM	0.89	0.777	0.767	0.71	0.69561	0.6987	0.7053	0.707	0.72
MDAMB436, 100 µM	0.876	0.832	0.773	0.723	0.699	0.677	0.657	0.656	0.645
MDAMB468, 0.1 µM	0.828	0.787	0.792	0.762	0.736	0.761	0.754	0.753	0.759
MDAMB468, 1 µM	0.893	0.845	0.787	0.708	0.666	0.6413	0.621	0.6	0.59
MDAMB468, 10 µM	0.849	0.7404	0.713	0.64	0.6	0.582	0.547	0.519	0.505
MDAMB468, 100 µM	0.93	0.807	0.698	0.596	0.534	0.508	0.474	0.459	0.443

Values are relative to the signal before dosing, not to a vehicle control; the signal also falls without drug.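 Cells used are triple-negative breast cancer lines, either basal-like or mesenchymal-like, grown in the absence of fibroblasts. Lower red signal means mitochondrial integrity is lost, a surrogate for apoptosis.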
